Test results published in PubChem BioAssay AID624288 (National Center for Advancing Translational Sciences (NCATS), 2012).
In all, about 340,000 compounds went through this assay and about 1,400 (0.41%) were called active. Only results without a clear call are listed here; the source files them as inconclusive. Calls come from the whole dose curve; cell line not stated here.

Assay: qHTS for Antagonists of gsp, the Etiologic Mutation Responsible for Fibrous Dysplasia/McCune-Albright Syndrome: qHTS; note: nearly all actives have a fitted effect of over 65% in size
Conditions: gsp-mutant cells, cAMP HTRF, 30 min
Potency is the fitted concentration of half-maximal effect.

Compound	Potency
COc1ccc(Cl)cc1C(=O)NCC1(N2CCOCC2)CCCCC1	inconclusive: 31.6 µM
Cc1cc(C)cc(N(C(=O)c2ccccc2)C2CCN(C(=O)OC(C)(C)C)CC2)c1	inconclusive: 31.6 µM
